These are yes or no findings as the source states them, for the method shown. Some entries that bind do so weakly or less than the wild type.
Target: growth factor receptor-bound protein 14 (Grb14) (human) (UniProt Q14449)
Test: co-IP; Grb14 immobilised on agarose-conjugated Anti-V5-Tag beads from COS-7 lysate and washed; WGA (Glycoprotein Isolation Kit) purified IR added with 2% DMSO or compound 2 (200 µg/mL), 4 °C overnight; lysis buffer 50 mM Tris-HCl pH 7.4, 150 mM NaCl, 1% Triton X-100; bound IRβ detected by …; both purified

Chains of the proteins cited; added tags and fusions are not shown. Residues count along the entry.
UniProt Q14449: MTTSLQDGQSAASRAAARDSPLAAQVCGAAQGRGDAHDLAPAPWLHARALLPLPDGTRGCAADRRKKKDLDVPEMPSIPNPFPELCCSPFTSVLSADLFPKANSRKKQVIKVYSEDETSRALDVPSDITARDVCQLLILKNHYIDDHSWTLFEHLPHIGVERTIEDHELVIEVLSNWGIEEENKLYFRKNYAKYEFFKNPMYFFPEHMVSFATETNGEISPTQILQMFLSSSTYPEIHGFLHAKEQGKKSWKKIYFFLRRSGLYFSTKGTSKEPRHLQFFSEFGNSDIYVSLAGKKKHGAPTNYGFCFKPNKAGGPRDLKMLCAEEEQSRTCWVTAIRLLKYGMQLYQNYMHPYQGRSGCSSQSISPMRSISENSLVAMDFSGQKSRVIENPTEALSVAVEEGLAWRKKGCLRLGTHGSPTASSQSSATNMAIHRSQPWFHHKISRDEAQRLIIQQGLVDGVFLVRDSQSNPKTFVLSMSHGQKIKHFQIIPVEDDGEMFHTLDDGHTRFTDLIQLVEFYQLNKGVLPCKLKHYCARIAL
UniProt P06213, residues 28-1382: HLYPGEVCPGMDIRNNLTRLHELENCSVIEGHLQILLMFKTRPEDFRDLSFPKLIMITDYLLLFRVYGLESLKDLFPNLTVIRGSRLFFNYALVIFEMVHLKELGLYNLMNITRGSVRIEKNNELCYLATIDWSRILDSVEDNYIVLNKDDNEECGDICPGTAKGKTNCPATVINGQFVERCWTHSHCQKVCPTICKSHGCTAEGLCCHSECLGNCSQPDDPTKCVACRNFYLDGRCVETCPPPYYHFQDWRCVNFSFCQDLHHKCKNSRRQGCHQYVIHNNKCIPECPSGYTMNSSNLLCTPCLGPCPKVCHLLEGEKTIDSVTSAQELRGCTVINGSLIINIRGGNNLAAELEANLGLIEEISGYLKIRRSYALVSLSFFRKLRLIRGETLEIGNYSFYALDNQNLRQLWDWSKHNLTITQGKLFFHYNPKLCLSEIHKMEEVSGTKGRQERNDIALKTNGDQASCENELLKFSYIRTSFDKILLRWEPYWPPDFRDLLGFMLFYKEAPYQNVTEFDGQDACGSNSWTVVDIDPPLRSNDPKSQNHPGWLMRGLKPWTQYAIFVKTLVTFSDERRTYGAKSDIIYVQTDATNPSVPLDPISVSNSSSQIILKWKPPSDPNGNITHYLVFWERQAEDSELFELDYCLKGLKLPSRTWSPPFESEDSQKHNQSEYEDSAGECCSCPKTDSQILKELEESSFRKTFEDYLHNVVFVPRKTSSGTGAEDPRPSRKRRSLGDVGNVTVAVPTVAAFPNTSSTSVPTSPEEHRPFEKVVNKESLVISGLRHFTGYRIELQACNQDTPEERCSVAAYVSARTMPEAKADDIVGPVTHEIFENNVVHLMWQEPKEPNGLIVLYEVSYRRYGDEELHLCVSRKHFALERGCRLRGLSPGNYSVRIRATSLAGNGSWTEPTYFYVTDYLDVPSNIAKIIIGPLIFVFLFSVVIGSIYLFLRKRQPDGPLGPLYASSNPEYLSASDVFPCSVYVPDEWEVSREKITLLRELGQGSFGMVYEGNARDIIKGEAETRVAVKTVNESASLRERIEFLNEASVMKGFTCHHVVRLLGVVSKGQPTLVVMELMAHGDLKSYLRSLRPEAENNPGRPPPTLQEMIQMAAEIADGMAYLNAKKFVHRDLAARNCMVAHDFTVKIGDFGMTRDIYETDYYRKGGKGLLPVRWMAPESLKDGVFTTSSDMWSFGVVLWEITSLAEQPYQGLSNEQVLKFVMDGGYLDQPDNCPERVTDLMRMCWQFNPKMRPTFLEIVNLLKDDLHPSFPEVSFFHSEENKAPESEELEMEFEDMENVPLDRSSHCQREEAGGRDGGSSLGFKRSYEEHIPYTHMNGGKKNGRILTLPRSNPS

binding: binds
Substance: insulin receptor (IR) (from UniProt P06213 28-1382)

From paper PMC10780909
